# Patent publication US20100021918A1, “METHOD FOR ASSAYING ACTION OF ANTITUMOR AGENT USING SPLICING DEFECTS AS INDEX” (Eisai R&D Management Co., Ltd., priority 2007, published 2010)
# The source gives many values for each of these; only a part stands here.
# Test system: human colon carcinoma cell strain WiDr
# Assay: Microarray analysis (2), reviewed conditions, intron expression, Table 3
# Assay type: cell-based
# Method: WiDr cells were first suspended in RPMI1640 medium (containing 10% FBS, penicillin, and streptomycin) and seeded in a 10 cm dish (2×10^6 cells/dish). After an overnight culture in an incubator with 5% carbon dioxide gas at 37° C., the medium was changed with medium containing 14 nM of (8E,12E,14E)-7-((4-cycloheptylpiperazin-1-yl)carbonyl)oxy-3,6,16,21-tetrahydroxy-6,10,12,16,20-pentamethyl-18,19-epoxytricosa-8,12,14-trien-11-olide or containing vehicle alone. After cultured for additional six hours, TRI reagent (SIGMA) were added to the cells and the cells were harvested. RNA was purified in accordance with the protocol of TRI reagent, followed by further purification with RNeasy (QIAGEN). Absorbance at 260 nm was measured to quantify an amount of RNA. This experiment was repeated three times and RNA samples (n=3) were prepared.
# Ribosomal RNA was removed from 1 μg of each total RNA of control cells (n=3) and cells with the treatment (n=3) by using RiboMinus Human/Mouse Transcriptome Isolation Kit (Invitrogen). Single stranded cDNA synthesis, double stranded cDNA synthesis, cRNA synthesis, second single stranded cDNA synthesis, cDNA fragmentation, and cDNA labeling in order were carried out for the total RNA from which ribosomal RNA was removed, by using GeneChip Whole Transcript Sense Target Labeling and Control Reagents (Affymetrix) to make a cDNA probe. The cDNA probe was used for hybridization with Human Exon 1.0 ST Array (Affymetrix). The array was washed and stained, and luminescence intensity was measured by a scanner.
# Analysis conditions were reviewed in the data used in Example 3. Genes containing increased introns upon treatment with (8E,12E,14E)-7-((4-cycloheptylpiperazin-1-yl)carbonyl)oxy-3,6,16,21-tetrahydroxy-6,10,12,16,20-pentamethyl-18,19-epoxytricosa-8,12,14-trien-11-olide were identified.
# In order to consider the analysis conditions, variations in the data from the samples with identical conditions were studied. […] It turned out that, by analyzing under conditions where the expression level was more than 100 and change in the expression level was more than five times, a probe set with increased expression can be extracted.
# Probe sets showing that the normalized change in the level expression of the probe set in the group with the treatment was more than 5 times; the expression level of the probe set and the gene in the group with the treatment were more than 100; and probe set annotation was “extended, full, free”, were picked out. Welch's t-test was conducted with the probe sets extracted for the treated group and the control group to determine a p and q value. A gene containing the probe sets with the q value of less than 5% was determined as a candidate gene with increased expression level of the intron regions (Table 3).
# In Table 3, for each gene evaluated, gene name (Gene Name), abbreviated name (Gene Symbol), accession number (Accession), alias name (Synonym), transcription cluster number in Human Exon 1.0 ST Array (Human Exon 1.0 ST Array Transcript Cluster ID), chromosome number (Chromosome), type of strand (Strand), start region (Start), stop region (Stop), and change in expression level (Fold Change) were respectively shown.
smiles,measurement,setting,value
"CCC(O)C(C)C1OC1CC(C)(O)/C=C/C=C(\C)C1OC(=O)CC(O)CCC(C)(O)C(OC(=O)N2CCN(C3CCCCCC3)CC2)/C=C/C1C (stereo not shown) [E7107, (8E,12E,14E)-7-((4-cycloheptylpiperazin-1-yl)carbonyl)oxy-3,6,16,21-tetrahydroxy-6,10,12,16,20-pentamethyl-18,19-epoxytricosa-8,12,14-trien-11-olide]",Fold Change,"Gene Symbol STOML2 // FANCG, Transcript Cluster ID 3204534",5.74
same,Fold Change,"Gene Symbol SUZ12, Transcript Cluster ID 3717395",5.55
same,Fold Change,"Gene Symbol SYF2 // MXI1 // C1orf63, Transcript Cluster ID 2402068",5.47
same,Fold Change,"Gene Symbol TLK1, Transcript Cluster ID 2586603",5.55
same,Fold Change,"Gene Symbol TM2D3, Transcript Cluster ID 3642358",5.62
same,Fold Change,"Gene Symbol TMEM11, Transcript Cluster ID 3749767",5.77
same,Fold Change,"Gene Symbol TMEM70, Transcript Cluster ID 3103494",5.82
same,Fold Change,"Gene Symbol TMEM115, Transcript Cluster ID 2675304",5.76
same,Fold Change,"Gene Symbol TNFRSF21, Transcript Cluster ID 2956052",5.80
same,Fold Change,"Gene Symbol TOE1, Transcript Cluster ID 2334319",5.67
same,Fold Change,"Gene Symbol TRAF2, Transcript Cluster ID 3194896",5.56
same,Fold Change,"Gene Symbol TRAF4, Transcript Cluster ID 3715839",5.71
same,Fold Change,"Gene Symbol TRIM28, Transcript Cluster ID 3844238",5.84
same,Fold Change,"Gene Symbol TXLNA // DCDC2B, Transcript Cluster ID 2328713",5.52
same,Fold Change,"Gene Symbol UBE2D3, Transcript Cluster ID 2779992",5.61
same,Fold Change,"Gene Symbol UBE3C, Transcript Cluster ID 3033924",5.68
same,Fold Change,"Gene Symbol UBXD8, Transcript Cluster ID 2842570",5.48
same,Fold Change,"Gene Symbol USP3, Transcript Cluster ID 3597603",5.54
same,Fold Change,"Gene Symbol USP6NL, Transcript Cluster ID 3277468",5.65
same,Fold Change,"Gene Symbol UTP14A, Transcript Cluster ID 3990566",5.93
same,Fold Change,"Gene Symbol UTP18, Transcript Cluster ID 3726992",5.49
same,Fold Change,"Gene Symbol VCP // FANCG, Transcript Cluster ID 3204404",5.58
same,Fold Change,"Gene Symbol WDR26, Transcript Cluster ID 2458082",5.74
same,Fold Change,"Gene Symbol XRN2, Transcript Cluster ID 3879467",5.69
same,Fold Change,"Gene Symbol YY1, Transcript Cluster ID 3551677",5.89
same,Fold Change,"Gene Symbol ZBTB9 // SYNGAP1, Transcript Cluster ID 2903703",5.82
same,Fold Change,"Gene Symbol ZFAND3, Transcript Cluster ID 2905664",5.93
same,Fold Change,"Gene Symbol ZNF259, Transcript Cluster ID 3392871",5.86
same,Fold Change,"Gene Symbol ZNF593, Transcript Cluster ID 2326311",5.90
same,Fold Change,"gene 6-Mar (membrane-associated ring finger (C3HC4) 6), Transcript Cluster ID 2801608",5.20
same,Fold Change,"gene 15-Sep (15 kDa selenoprotein), change in expression level, treated vs control",13.02
same,Fold Change,"gene ABCC1, change in expression level, treated vs control",6.18
same,Fold Change,"gene ABCF1, Transcript Cluster ID 2901687",5.42
same,Fold Change,"gene ABCF3, Transcript Cluster ID 2655511, intron expression, treated vs control",10.26
same,Fold Change,"gene ABI2, change in expression level, treated vs control",6.27
same,Fold Change,"gene ABLIM3, change in expression level, treated vs control",6.47
same,Fold Change,"gene ABT1, intron expression, treated vs control",6.59
same,Fold Change,"gene ACSL3, change in expression level, treated vs control",16.27
same,Fold Change,"gene ACTG1, Transcript Cluster ID 3773932, intron expression, treated vs control",9.32
same,Fold Change,"gene ACTN1, change in expression level, treated vs control",14.26
same,Fold Change,"gene ACTN4, change in expression level, treated vs control",6.06
same,Fold Change,"gene ADAM10, change in expression level, treated vs control",6.00
same,Fold Change,"gene ADIPOR2, change in expression level, treated vs control",11.05
same,Fold Change,"gene ADRM1, Transcript Cluster ID 3892607, intron expression, treated vs control",9.05
same,Fold Change,"gene AFF4, Transcript Cluster ID 2875555, intron expression, treated vs control",9.38
same,Fold Change,"gene AK2, Transcript Cluster ID 2405364, intron expression, treated vs control",9.45
same,Fold Change,"gene AKAP1, Transcript Cluster ID 3728097",5.18
same,Fold Change,"gene AKAP12, intron expression, treated vs control",7.27
same,Fold Change,"gene AKAP13, change in expression level, treated vs control",13.65
same,Fold Change,"gene ALKBH2, Transcript Cluster ID 3470689",5.13
same,Fold Change,"gene ALKBH3, Transcript Cluster ID 3328214",5.10
same,Fold Change,"gene AMOTL2, intron expression, treated vs control",7.06
same,Fold Change,"gene ANKRD13D, Transcript Cluster ID 3336857",5.45
same,Fold Change,"gene ANKRD17, change in expression level, treated vs control",6.50
same,Fold Change,"gene ANXA2, change in expression level, treated vs control",6.06
same,Fold Change,"gene AP1G1, intron expression, treated vs control",6.57
same,Fold Change,"gene AP2A2, intron expression, treated vs control",7.01
same,Fold Change,"gene APTX, Transcript Cluster ID 3203311",5.03
same,Fold Change,"gene AQR, change in expression level, treated vs control",11.56
same,Fold Change,"gene ARF4, intron expression, treated vs control",6.96
same,Fold Change,"gene ARFGEF1, change in expression level, treated vs control",21.19
same,Fold Change,"gene ARFIP2 // SLCO6A1, Transcript Cluster ID 3360941, intron expression, treated vs control",10.24
same,Fold Change,"gene ARHGAP11A, change in expression level, treated vs control",12.06
same,Fold Change,"gene ARHGAP12, Transcript Cluster ID 3283920, intron expression, treated vs control",8.93
same,Fold Change,"gene ARHGAP21, intron expression, treated vs control",6.71
same,Fold Change,"gene ARHGEF12, change in expression level, treated vs control",14.21
same,Fold Change,"gene ARHGEF18, Transcript Cluster ID 3818732",5.05
same,Fold Change,"gene ARL6IP2, change in expression level, treated vs control",13.57
same,Fold Change,"gene ARL6IP4, change in expression level, treated vs control",6.48
same,Fold Change,"gene ARRDC3, intron expression, treated vs control",6.67
same,Fold Change,"gene ASNSD1, change in expression level, treated vs control",6.46
same,Fold Change,"gene ATAD1, Transcript Cluster ID 3299255",5.12
same,Fold Change,"gene ATG3, change in expression level, treated vs control",6.39
same,Fold Change,"gene ATG16L1, change in expression level, treated vs control",6.50
same,Fold Change,"gene ATP1B1, change in expression level, treated vs control",11.44
same,Fold Change,"gene ATP2A2, change in expression level, treated vs control",6.26
same,Fold Change,"gene ATP5B, Transcript Cluster ID 3458033",5.11
same,Fold Change,"gene ATP5I, intron expression, treated vs control",7.14
same,Fold Change,"gene AUP1 // DQX1, Transcript Cluster ID 2560254, intron expression, treated vs control",9.38
same,Fold Change,"gene AURKA // STK6P, change in expression level, treated vs control",6.30
same,Fold Change,"gene AXIN1, Transcript Cluster ID 3675047",5.41
same,Fold Change,"gene BAG1, intron expression, treated vs control",6.68
same,Fold Change,"gene BAT4, change in expression level, treated vs control",6.21
same,Fold Change,"gene BCAR3, Transcript Cluster ID 2423422",5.15
same,Fold Change,"gene BCL10, change in expression level, treated vs control",12.67
same,Fold Change,"gene BCLAF1, Transcript Cluster ID 2975680, intron expression, treated vs control",8.99
same,Fold Change,"gene BIRC5, Transcript Cluster ID 3736290",5.29
same,Fold Change,"gene BMI1, change in expression level, treated vs control",18.11
same,Fold Change,"gene BRD1, change in expression level, treated vs control",6.12
same,Fold Change,"gene BRD2, intron expression, treated vs control",7.20
same,Fold Change,"gene BTBD3, Transcript Cluster ID 3876645",5.12
same,Fold Change,"gene BTF3, Transcript Cluster ID 2815331",5.43
same,Fold Change,"gene BUB1, Transcript Cluster ID 2570616, intron expression, treated vs control",9.36
same,Fold Change,"gene BUD31, Transcript Cluster ID 3014742",5.13
same,Fold Change,"gene BXDC1, change in expression level, treated vs control",14.38
same,Fold Change,"gene BXDC2, change in expression level, treated vs control",17.08
same,Fold Change,"gene C1QDC1, Transcript Cluster ID 3449368",5.44
same,Fold Change,"gene C1orf77, Transcript Cluster ID 2359736",5.18
same,Fold Change,"gene C1orf174, change in expression level, treated vs control",6.06
same,Fold Change,"gene C3orf17, Transcript Cluster ID 2688882, intron expression, treated vs control",10.73
same,Fold Change,"gene C4orf23, change in expression level, treated vs control",11.25
same,Fold Change,"gene C5orf22, intron expression, treated vs control",7.26
same,Fold Change,"gene C6orf94 // LTV1, change in expression level, treated vs control",13.35
